Test results reported in PubChem BioAssay AID256 (DTP/NCI, 2004).
The list shows only some results of the screen, not a fair sample: it gathers tests that were run many times, whatever their T/C, doses with no T/C, and many T/C values between a quarter and a half above the control. Other doses and runs of a compound stand elsewhere. T/C: endpoint of the treated group in % of that of the vehicle group. Some entries give survivors of the animals treated and no T/C: the source files T/C as zero there, which appears to mark a toxic dose or a test without result, not a measured value. Some survivor counts are full or nearly so, which does not show that the dose was tolerated: survival well below the control is almost never listed, so the zero probably covers shortened survival too. Survivors were counted at the toxicity check, usually on the fifth day, unless a day is given; later deaths do not show. Schedule codes are those of the source, read here as Q, the interval in days (D) or hours (H), X, the number of doses. Some structures stand for samples that the source files as different forms (salt, stereo form or complex); doses refer to the form tested. Some entries were tested several times; their values stand side by side, smallest first. Where survival is the endpoint, this PubChem deposit counts one and a half times the control or more as active, and values a quarter to a half above the control carry no call in these data; other NCI protocols may use other cut-offs. Some T/C values carry the count of animals alive at the toxicity check (mostly the fifth day); where none is given, no animal had died by that day. Brackets with × stand for listed records that agree.

Tested on: CD2F1 mice, L1210 leukemia ip, survival T/C
Assay: NCI In Vivo Anticancer Drug Screen. Data for tumor model L1210 Leukemia (intraperitoneal) in CD2F1 (CDF1) mice
Conditions: higher T/C = longer survival
Method in brief: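 Ratio T/C, where T is the treated-group value and C the vehicle-dosed control value, from mice implanted with a transplantable tumor.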

[1] = T/C endpoint: mean survival time, dose: 200.0 mg/kg/injection, schedule: Q01DX009 (ip), vehicle: saline
[2] = T/C endpoint: mean survival time, dose: 400.0 mg/kg/injection, schedule: Q04DX002 (ip), vehicle: saline with Tween-80
[3] = T/C endpoint: mean survival time, dose: 100.0 mg/kg/injection, schedule: Q04DX003 (ip), vehicle: saline with Tween-80
[4] = T/C endpoint: mean survival time, dose: 200.0 mg/kg/injection, schedule: Q04DX003 (ip), vehicle: saline with Tween-80
[5] = T/C endpoint: mean survival time, dose: 400.0 mg/kg/injection, schedule: Q04DX003 (ip), vehicle: saline with Tween-80
[6] = T/C endpoint: mean survival time, dose: 200.0 mg/kg/injection, schedule: Q01DX009 (ip), vehicle: saline with Tween-80
[7] = T/C endpoint: mean survival time, dose: 400.0 mg/kg/injection, schedule: Q01DX009 (ip), vehicle: saline with Tween-80
[8] = T/C endpoint: mean survival time, dose: 100.0 mg/kg/injection, schedule: Q01DX001 (ip), vehicle: saline
[9] = T/C endpoint: mean survival time, dose: 200.0 mg/kg/injection, schedule: Q01DX001 (ip), vehicle: saline
[10] = T/C endpoint: mean survival time, dose: 400.0 mg/kg/injection, schedule: Q01DX001 (ip), vehicle: saline
[11] = T/C endpoint: mean survival time, dose: 100.0 mg/kg/injection, schedule: Q04DX002 (ip), vehicle: saline
[12] = T/C endpoint: mean survival time, dose: 100.0 mg/kg/injection, schedule: Q04DX002 (ip), vehicle: saline with Tween-80
[13] = T/C endpoint: mean survival time, dose: 200.0 mg/kg/injection, schedule: Q04DX002 (ip), vehicle: saline with Tween-80
[14] = T/C endpoint: mean survival time, dose: 200.0 mg/kg/injection, schedule: Q01DX009 (ip), vehicle: Klucel (hydroxypropylcellulose) (HPC)

## CC(NC(=S)Nc1ccccc1)c1ccccc1 (centres undefined)
T/C endpoint: mean survival time, dose: 100.0 mg/kg/injection, schedule: Q04DX002 (ip), vehicle: Klucel (hydroxypropylcellulose) (HPC)
  survivor count: 2 of 3
T/C endpoint: mean survival time, dose: 200.0 mg/kg/injection, schedule: Q04DX002 (ip), vehicle: Klucel (hydroxypropylcellulose) (HPC)
  survivor count: 1 of 3
T/C endpoint: mean survival time, dose: 400.0 mg/kg/injection, schedule: Q04DX002 (ip), vehicle: Klucel (hydroxypropylcellulose) (HPC)
  survivor count: 0 of 3

## NCCc1ccc(O)c(O)c1
[1]
  T/C: 127 % of control
T/C endpoint: mean survival time, dose: 400.0 mg/kg/injection, schedule: Q01DX009 (ip), vehicle: saline
  T/C: 133 % of control
T/C endpoint: mean survival time, dose: 800.0 mg/kg/injection, schedule: Q01DX009 (ip), vehicle: saline
  T/C: 136 % of control
T/C endpoint: median survival time, dose: 200.0 mg/kg/injection, schedule: Q01DX009 (ip), vehicle: saline
  T/C: 130 and 137 % of control [6 of 7 alive]
T/C endpoint: median survival time, dose: 300.0 mg/kg/injection, schedule: Q01DX009 (ip), vehicle: saline
  T/C: 128 % of control [6 of 7 alive]
T/C endpoint: median survival time, dose: 400.0 mg/kg/injection, schedule: Q01DX009 (ip), vehicle: saline
  T/C: 132 and 132 % of control [4 of 6 alive]

## Cc1cc(=O)[nH]c(=S)[nH]1
[2]
  survivor count: 0 of 3

## N#CC[CH2][Sn]([I])([c]1ccccc1)[c]1ccccc1
T/C endpoint: mean survival time, dose: 25.0 mg/kg/injection, schedule: Q04DX003 (ip), vehicle: saline with Tween-80
  survivor count: 0 of 3

## CS(=O)(=O)OCCN(CCOS(C)(=O)=O)c1cccc(Cl)c1
T/C endpoint: mean survival time, dose: 16.0 mg/kg/injection, schedule: Q01DX010 (ip), vehicle: saline
  T/C: 148 % of control
T/C endpoint: mean survival time, dose: 16.0 mg/kg/injection, schedule: Q01DX015 (ip), vehicle: saline
  T/C: 128 % of control
T/C endpoint: mean survival time, dose: 32.0 mg/kg/injection, schedule: Q01DX015 (ip), vehicle: saline
  survivor count: 6 of 6

## CS(=O)(=O)Nc1ccc(Nc2c3ccccc3nc3cc(N)ccc23)cc1
T/C endpoint: mean survival time, dose: 1.3 mg/kg/injection, schedule: Q01DX009 (ip), vehicle: saline
  T/C: 144 % of control
T/C endpoint: mean survival time, dose: 2.0 mg/kg/injection, schedule: Q01DX009 (ip), vehicle: saline
  T/C: 131 % of control
T/C endpoint: mean survival time, dose: 6.0 mg/kg/injection, schedule: Q01DX001 (ip), vehicle: saline
  T/C: 139 % of control [5 of 6 alive]

## CC1Cc2c([nH]c3ccc(Cl)cc23)CN1 (centres undefined)
[2]
  survivor count: 1 of 3

## CCCCCCCCCCC[n+]1ccc(C(N)=O)cc1
[3]
  survivor count: 1 of 6
[4]
  survivor count: 0 of 6
[5]
  survivor count: 0 of 6

## Cc1ccc(S(=O)(=O)SC(Cl)(Cl)Cl)cc1
T/C endpoint: mean survival time, dose: 50.0 mg/kg/injection, schedule: Q01DX009 (ip), vehicle: saline
  survivor count: 3 of 3

## O=C(CCC(O)c1ccccc1)c1ccccc1 (centres undefined)
[2]
  survivor count: 3 of 3

## Cc1cc(O)c(N=Nc2ccc(C(=O)O)cc2)cc1C
[1]
  survivor count: 6 of 6

## C[C@H](CCC[C@H](C)OS(=O)(=O)c1ccccc1)OS(=O)(=O)c1ccccc1
T/C endpoint: mean survival time, dose: 25.0 mg/kg/injection, schedule: Q01DX009 (ip), vehicle: saline with Tween-80
  T/C: 91, 98, 104, 106 % of control
T/C endpoint: mean survival time, dose: 50.0 mg/kg/injection, schedule: Q01DX009 (ip), vehicle: saline with Tween-80
  T/C: 91, 97, 104 % of control (2×)
T/C endpoint: mean survival time, dose: 100.0 mg/kg/injection, schedule: Q01DX009 (ip), vehicle: saline with Tween-80
  T/C: 86, 98, 108, 110 % of control
[6]
  T/C: 91, 112, 114 % of control
  survivor count: 5 of 6
[7]
  survivor count: 2 of 6

## O=C(O)C(=O)C(Cl)Br (centres undefined)
[8]
  survivor count: 1 of 3
[9]
  survivor count: 0 of 3
[10]
  survivor count: 0 of 3

## COC(=O)C(NC(=O)CCNC(=O)OCc1ccccc1)C(C)C (centres undefined)
[7]
  survivor count: 3 of 6

## CC[N+](C)(CC)CCOC(=O)c1ccc(N=C=S)cc1
[11]
  survivor count: 1 of 3
T/C endpoint: mean survival time, dose: 200.0 mg/kg/injection, schedule: Q04DX002 (ip), vehicle: saline
  survivor count: 1 of 3
T/C endpoint: mean survival time, dose: 400.0 mg/kg/injection, schedule: Q04DX002 (ip), vehicle: saline
  survivor count: 0 of 3

## Cc1csc2ncnc(Cl)c12
[12]
  survivor count: 3 of 3
[13]
  survivor count: 3 of 3
[2]
  survivor count: 3 of 3

## C/C=C(\C)c1cc(=O)c2c(C)cc3c(c2o1)C(=O)c1c(O)c(C2CC(C)(N(C)C)C(OC(C)=O)C(C)O2)cc(C2CC(N(C)C)C(O)C(C)O2)c1C3=O (centres undefined)
T/C endpoint: mean survival time, dose: 5.0 mg/kg/injection, schedule: Q01DX009 (ip), vehicle: saline
  survivor count: 5 of 6

## ClC1CCC[N-]C1.ClC1CCC[N-]C1.[Cl][Pt+2][Cl] (centres undefined)
T/C endpoint: mean survival time, dose: 12.5 mg/kg/injection, schedule: Q01DX009 (ip), vehicle: Klucel (hydroxypropylcellulose) (HPC)
  survivor count: 6 of 6
T/C endpoint: mean survival time, dose: 25.0 mg/kg/injection, schedule: Q01DX009 (ip), vehicle: Klucel (hydroxypropylcellulose) (HPC)
  survivor count: 4 of 6
T/C endpoint: mean survival time, dose: 50.0 mg/kg/injection, schedule: Q01DX009 (ip), vehicle: Klucel (hydroxypropylcellulose) (HPC)
  survivor count: 2 of 6
T/C endpoint: mean survival time, dose: 100.0 mg/kg/injection, schedule: Q01DX009 (ip), vehicle: Klucel (hydroxypropylcellulose) (HPC)
  survivor count: 2 of 6
[14]
  survivor count: 0 of 6
[6]
  survivor count: 1 of 6

## O=C(O)c1ccco1
T/C endpoint: mean survival time, dose: 400.0 mg/kg/injection, schedule: Q04DX003 (ip), vehicle: saline
  survivor count: 2 of 6

## CC/C(=C(/CC)c1ccc(OP(N)(=O)N(CCCl)CCCl)cc1)c1ccc(OP(N)(=O)N(CCCl)CCCl)cc1 (centres undefined)
T/C endpoint: mean survival time, dose: 450.0 mg/kg/injection, schedule: Q01DX001 (ip), vehicle: DMSO
  survivor count: 3 of 6

## [Cl][Pt+2][Cl].[NH-]c1ccc(F)c(Cl)c1.[NH-]c1ccc(F)c(Cl)c1
T/C endpoint: mean survival time, dose: 100.0 mg/kg/injection, schedule: Q04DX003 (ip), vehicle: distilled water + Tween-80
  survivor count: 3 of 6
T/C endpoint: mean survival time, dose: 200.0 mg/kg/injection, schedule: Q04DX003 (ip), vehicle: distilled water + Tween-80
  survivor count: 0 of 6

## O=[n+]1ccn([O-])c2ccccc21
[2]
  survivor count: 1 of 3

## Cc1ccc(S(=O)(=O)OC2CCCCCCCCCCC2=O)cc1 (centres undefined)
T/C endpoint: mean survival time, dose: 200.0 mg/kg/injection, schedule: Q04DX003 (ip), vehicle: other
  survivor count: 3 of 3

## OCC1OC(n2cnc3c(NCCc4ccc(O)c(O)c4)ncnc32)C(O)C1O (centres undefined)
T/C endpoint: mean survival time, dose: 100.0 mg/kg/injection, schedule: Q01DX005 (ip), vehicle: saline with Tween-80
  survivor count: 3 of 6
T/C endpoint: mean survival time, dose: 200.0 mg/kg/injection, schedule: Q01DX005 (ip), vehicle: saline with Tween-80
  survivor count: 1 of 6

## CN(C)C(=N)N(C)C
T/C endpoint: mean survival time, dose: 200.0 mg/kg/injection, schedule: Q04DX003 (ip), vehicle: saline sonified
  survivor count: 2 of 6
T/C endpoint: mean survival time, dose: 400.0 mg/kg/injection, schedule: Q04DX003 (ip), vehicle: saline sonified
  survivor count: 0 of 6

## N#C[S-].N#C[S-].N#C[S-].N#C[S-].[Co]
[8]
  survivor count: 0 of 6
[9]
  survivor count: 0 of 6
[10]
  survivor count: 0 of 6

## S=C=NCCCCCCN=C=S
[11]
  survivor count: 2 of 6

## COc1ccc(NC(=O)Oc2cccnc2)c(Cl)c1
[14]
  survivor count: 0 of 3

## Cc1ccc(C(=O)/C=C/c2ccccc2)cc1
T/C endpoint: mean survival time, dose: 400.0 mg/kg/injection, schedule: Q01DX009 (ip), vehicle: Klucel (hydroxypropylcellulose) (HPC)
  survivor count: 5 of 6

## CCCCCCC1CCC(N)CC1 (centres undefined)
[12]
  survivor count: 0 of 3
[13]
  survivor count: 0 of 3
[2]
  survivor count: 0 of 3

## O=S(=O)(O)SCCN1CCCCC1
[3]
  survivor count: 5 of 6
[4]
  survivor count: 0 of 6
[5]
  survivor count: 0 of 6

## CCC(=O)/C(=C\c1ccccc1Cl)C(C)=O
[7]
  survivor count: 5 of 6

## O=C1NC(=O)C(Br)C(=O)N1
T/C endpoint: mean survival time, dose: 300.0 mg/kg/injection, schedule: Q01DX001 (ip), vehicle: saline
  survivor count: 0 of 6

## C=CC1CN2CCC1CC2C(O)c1ccnc2ccc(OC)cc12 (centres undefined) (tested in a mixture with another compound)
[9]
  survivor count: 6 of 6
[10]
  survivor count: 3 of 6
[5]
  survivor count: 1 of 6 and 3 of 6
